No constants are given. Whether binding was seen depends on the method and setting. In cells and extracts the contact can be indirect. Some results given as binding are weak or reduced against the parent protein; the word gives no strength.

Chains of the proteins cited; added tags and fusions are not shown. Lines headed by an entry give the natural chain unless they say otherwise; changes in a name come on top. Residues count along the entry.
UniProt P84022: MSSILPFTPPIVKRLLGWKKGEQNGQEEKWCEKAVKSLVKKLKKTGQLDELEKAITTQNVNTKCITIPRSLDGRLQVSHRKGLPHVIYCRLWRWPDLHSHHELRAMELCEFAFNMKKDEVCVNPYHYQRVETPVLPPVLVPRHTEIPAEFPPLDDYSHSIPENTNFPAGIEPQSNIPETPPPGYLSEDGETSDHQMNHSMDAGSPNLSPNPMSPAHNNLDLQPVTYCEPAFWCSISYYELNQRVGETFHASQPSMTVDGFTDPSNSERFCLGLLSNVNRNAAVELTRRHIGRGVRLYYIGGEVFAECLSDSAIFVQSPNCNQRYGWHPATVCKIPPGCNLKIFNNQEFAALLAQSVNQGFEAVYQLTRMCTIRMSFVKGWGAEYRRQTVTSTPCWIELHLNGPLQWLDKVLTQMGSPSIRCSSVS
UniProt Q93009: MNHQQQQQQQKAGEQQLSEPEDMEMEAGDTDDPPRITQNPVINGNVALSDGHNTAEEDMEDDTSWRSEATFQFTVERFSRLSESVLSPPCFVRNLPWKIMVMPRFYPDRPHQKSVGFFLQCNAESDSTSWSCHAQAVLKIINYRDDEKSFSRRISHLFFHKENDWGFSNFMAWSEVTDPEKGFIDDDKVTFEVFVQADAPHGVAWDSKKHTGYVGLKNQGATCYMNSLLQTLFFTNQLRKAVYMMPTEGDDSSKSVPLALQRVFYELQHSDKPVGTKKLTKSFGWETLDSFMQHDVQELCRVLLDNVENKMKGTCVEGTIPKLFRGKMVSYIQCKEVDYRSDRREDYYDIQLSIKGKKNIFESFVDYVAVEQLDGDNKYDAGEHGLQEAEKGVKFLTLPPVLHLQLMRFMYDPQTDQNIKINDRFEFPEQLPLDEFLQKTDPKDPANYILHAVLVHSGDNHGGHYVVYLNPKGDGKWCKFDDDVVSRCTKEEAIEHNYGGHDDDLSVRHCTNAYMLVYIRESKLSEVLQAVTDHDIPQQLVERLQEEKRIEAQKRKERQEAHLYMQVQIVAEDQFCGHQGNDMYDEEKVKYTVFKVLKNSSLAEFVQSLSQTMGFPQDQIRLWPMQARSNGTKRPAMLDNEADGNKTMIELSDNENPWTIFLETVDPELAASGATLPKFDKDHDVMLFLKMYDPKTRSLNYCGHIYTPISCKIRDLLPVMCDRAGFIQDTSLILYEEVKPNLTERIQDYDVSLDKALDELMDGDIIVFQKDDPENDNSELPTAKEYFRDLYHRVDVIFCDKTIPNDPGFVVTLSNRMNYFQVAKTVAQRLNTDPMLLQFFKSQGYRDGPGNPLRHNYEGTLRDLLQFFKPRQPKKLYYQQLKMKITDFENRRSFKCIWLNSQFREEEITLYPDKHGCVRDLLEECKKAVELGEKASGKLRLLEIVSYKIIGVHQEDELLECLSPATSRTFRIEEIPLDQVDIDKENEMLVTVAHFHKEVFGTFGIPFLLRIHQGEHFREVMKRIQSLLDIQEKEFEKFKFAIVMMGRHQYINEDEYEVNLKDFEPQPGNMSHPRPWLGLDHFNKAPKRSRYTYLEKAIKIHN
USP7 mutant containing amino acids 561-1102 (UBL domain): residues 561-1102 of Q93009
UniProt Q4VSI4: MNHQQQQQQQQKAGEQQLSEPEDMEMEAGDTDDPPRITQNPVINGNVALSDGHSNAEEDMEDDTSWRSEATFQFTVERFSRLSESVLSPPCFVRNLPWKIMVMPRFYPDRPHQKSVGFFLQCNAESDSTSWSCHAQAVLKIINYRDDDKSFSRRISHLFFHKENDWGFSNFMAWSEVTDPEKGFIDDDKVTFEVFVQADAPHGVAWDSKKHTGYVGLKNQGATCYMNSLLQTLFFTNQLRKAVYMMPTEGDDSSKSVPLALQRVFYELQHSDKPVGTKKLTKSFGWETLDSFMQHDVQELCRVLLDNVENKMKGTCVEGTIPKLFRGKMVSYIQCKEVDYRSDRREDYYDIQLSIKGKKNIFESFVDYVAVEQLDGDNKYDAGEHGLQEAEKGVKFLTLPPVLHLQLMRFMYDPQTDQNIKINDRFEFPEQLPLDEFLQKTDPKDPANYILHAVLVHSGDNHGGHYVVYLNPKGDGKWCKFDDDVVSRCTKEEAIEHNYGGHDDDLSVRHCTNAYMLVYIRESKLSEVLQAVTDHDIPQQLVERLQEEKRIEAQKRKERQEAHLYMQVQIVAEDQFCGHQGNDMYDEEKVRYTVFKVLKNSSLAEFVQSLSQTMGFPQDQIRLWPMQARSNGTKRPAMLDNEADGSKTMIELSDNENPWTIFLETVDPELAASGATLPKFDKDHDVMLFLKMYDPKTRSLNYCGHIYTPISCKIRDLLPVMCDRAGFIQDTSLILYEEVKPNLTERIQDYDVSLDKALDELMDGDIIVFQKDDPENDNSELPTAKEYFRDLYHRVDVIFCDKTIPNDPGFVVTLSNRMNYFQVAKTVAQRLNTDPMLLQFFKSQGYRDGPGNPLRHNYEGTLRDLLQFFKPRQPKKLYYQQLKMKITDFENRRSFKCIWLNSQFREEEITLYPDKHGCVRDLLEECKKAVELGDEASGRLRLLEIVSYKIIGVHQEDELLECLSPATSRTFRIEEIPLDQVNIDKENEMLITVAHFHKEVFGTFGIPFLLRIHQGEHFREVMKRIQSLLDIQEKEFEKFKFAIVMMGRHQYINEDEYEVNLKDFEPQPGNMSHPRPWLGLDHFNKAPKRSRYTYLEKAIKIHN
UniProt P84025: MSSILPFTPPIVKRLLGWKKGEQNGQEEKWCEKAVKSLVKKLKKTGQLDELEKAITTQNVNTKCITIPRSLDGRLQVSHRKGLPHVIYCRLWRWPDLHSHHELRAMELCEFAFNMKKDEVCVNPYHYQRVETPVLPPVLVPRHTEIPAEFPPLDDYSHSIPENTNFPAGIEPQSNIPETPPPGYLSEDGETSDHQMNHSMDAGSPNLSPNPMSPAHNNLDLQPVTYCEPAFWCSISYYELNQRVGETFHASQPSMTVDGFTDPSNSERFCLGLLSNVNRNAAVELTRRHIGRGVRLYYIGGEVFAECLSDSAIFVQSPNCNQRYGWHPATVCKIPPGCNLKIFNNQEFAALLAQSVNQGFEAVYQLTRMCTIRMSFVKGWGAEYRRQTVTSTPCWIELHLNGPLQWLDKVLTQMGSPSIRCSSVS

These results are taken from PMC11426239.

One assay addresses Myc-SMAD3 (UniProt P84022). The assay can be described thus: co-IP; 293T cells co-transfected with Flag-USP7 or Flag-USP7-C223S and Myc-SMAD3; SMAD3 immunoprecipitated by anti-Myc antibody.
The target of the next assay is Flag-USP7 (UniProt Q93009). As to the kind of experiment: co-IP; 293T cells co-transfected with Flag-USP7 (wild type or domain mutants) and Myc-SMAD3; USP7 immunoprecipitated by anti-Flag antibody.
Assay [1] concerns the target USP7 mutant containing amino acids 561-1102 (UBL domain) (UniProt Q93009). Described as above.
Assay [2] concerns the target USP7, endogenous in primary cardiac microvascular endothelial cells (CMECs) (rat (endogenous in CMECs)) (UniProt Q4VSI4). As to the kind of experiment: co-IP; CMECs treated with or without TGFβ1; endogenous USP7 immunoprecipitated by anti-USP7 antibody; IgG control.
Assay [3] addresses SMAD3, endogenous in primary cardiac microvascular endothelial cells (CMECs) (rat (endogenous in CMECs)) (UniProt P84025). The assay can be described thus: co-IP; CMECs treated with or without TGFβ1; endogenous SMAD3 immunoprecipitated by anti-SMAD3 antibody; IgG control.

As to “Flag-USP7 (from UniProt Q93009 1-1102) (enzyme)”, the binding entry in the assay with Myc-SMAD3 was “binds”.

For the substance “Flag-USP7-C223S (from UniProt Q93009 1-1102) (enzyme)”, in the assay with Myc-SMAD3, the binding result is listed as “binds”.

Turning to Myc-SMAD3 (from UniProt P84022 1-425), the binding result (with Flag-USP7; in assay [1]) was “binds” in each case.

Take “SMAD3, endogenous in primary cardiac microvascular endothelial cells (CMECs) (from UniProt P84025 1-425)”: in assay [2], the binding entry is “binds”.

With “USP7, endogenous in primary cardiac microvascular endothelial cells (CMECs) (from UniProt Q4VSI4 1-1103) (enzyme)”, the binding entry in assay [3] is listed as “binds”.
